Experimental data as given in the supplement of paper PMC10849652.
Some of the results follow.

Amino acid sequences for entries named in this document (tags omitted). A change or cut given only in a name is not applied to a line headed by its entry.
UniProt Q9NP61: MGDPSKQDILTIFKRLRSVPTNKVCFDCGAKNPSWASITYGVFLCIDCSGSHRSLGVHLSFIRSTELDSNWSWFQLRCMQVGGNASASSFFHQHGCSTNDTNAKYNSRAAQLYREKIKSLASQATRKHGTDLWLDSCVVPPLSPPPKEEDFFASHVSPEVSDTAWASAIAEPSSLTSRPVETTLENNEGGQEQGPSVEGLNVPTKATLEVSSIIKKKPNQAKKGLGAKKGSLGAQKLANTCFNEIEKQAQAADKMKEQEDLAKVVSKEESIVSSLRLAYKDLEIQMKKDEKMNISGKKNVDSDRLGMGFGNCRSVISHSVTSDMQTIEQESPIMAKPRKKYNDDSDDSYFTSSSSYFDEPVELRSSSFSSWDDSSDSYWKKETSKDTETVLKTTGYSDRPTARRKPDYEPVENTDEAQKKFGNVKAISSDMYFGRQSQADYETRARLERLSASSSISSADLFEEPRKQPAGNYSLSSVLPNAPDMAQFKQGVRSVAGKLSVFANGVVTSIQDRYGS
UniProt P02647, whole entry, looked up: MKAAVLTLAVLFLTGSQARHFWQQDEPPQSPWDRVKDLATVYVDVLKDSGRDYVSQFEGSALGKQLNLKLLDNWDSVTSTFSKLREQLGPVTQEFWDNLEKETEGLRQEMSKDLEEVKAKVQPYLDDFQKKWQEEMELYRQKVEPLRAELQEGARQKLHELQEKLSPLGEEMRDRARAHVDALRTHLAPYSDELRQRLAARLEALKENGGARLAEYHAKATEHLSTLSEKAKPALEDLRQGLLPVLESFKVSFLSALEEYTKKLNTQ
UniProt Q9BUR5: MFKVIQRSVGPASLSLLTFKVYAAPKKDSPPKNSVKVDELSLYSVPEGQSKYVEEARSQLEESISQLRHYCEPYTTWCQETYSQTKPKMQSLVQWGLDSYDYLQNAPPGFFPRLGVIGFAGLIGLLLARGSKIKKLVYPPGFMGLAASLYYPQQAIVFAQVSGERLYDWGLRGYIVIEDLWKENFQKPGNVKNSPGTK
UniProt O95445: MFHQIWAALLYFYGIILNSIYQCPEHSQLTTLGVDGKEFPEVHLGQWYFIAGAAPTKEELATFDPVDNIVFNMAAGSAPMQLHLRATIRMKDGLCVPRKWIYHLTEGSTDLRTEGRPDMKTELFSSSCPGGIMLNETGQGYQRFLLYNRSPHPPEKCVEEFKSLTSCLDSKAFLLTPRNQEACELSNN
UniProt O43747: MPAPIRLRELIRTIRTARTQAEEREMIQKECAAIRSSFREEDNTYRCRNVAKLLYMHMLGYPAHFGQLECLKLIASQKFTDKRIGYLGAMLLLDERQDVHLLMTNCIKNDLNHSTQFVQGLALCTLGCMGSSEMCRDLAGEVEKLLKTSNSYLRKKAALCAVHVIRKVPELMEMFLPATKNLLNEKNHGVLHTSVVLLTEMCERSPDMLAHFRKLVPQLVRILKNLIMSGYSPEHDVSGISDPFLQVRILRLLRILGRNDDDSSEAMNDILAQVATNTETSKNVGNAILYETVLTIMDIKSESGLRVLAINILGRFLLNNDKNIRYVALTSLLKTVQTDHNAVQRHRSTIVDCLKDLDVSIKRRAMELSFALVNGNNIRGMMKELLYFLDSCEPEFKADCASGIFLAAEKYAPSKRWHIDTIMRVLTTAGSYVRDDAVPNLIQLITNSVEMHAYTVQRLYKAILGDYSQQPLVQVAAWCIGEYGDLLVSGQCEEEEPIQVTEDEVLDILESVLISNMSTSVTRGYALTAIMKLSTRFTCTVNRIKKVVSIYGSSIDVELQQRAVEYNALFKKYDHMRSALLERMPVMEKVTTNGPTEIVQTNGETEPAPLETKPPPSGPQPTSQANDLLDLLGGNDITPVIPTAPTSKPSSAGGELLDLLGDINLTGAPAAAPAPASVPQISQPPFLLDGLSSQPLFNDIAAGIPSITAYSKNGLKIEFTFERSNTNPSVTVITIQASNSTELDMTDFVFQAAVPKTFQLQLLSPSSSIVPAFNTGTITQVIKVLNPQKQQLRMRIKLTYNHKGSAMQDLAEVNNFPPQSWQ
UniProt P04114: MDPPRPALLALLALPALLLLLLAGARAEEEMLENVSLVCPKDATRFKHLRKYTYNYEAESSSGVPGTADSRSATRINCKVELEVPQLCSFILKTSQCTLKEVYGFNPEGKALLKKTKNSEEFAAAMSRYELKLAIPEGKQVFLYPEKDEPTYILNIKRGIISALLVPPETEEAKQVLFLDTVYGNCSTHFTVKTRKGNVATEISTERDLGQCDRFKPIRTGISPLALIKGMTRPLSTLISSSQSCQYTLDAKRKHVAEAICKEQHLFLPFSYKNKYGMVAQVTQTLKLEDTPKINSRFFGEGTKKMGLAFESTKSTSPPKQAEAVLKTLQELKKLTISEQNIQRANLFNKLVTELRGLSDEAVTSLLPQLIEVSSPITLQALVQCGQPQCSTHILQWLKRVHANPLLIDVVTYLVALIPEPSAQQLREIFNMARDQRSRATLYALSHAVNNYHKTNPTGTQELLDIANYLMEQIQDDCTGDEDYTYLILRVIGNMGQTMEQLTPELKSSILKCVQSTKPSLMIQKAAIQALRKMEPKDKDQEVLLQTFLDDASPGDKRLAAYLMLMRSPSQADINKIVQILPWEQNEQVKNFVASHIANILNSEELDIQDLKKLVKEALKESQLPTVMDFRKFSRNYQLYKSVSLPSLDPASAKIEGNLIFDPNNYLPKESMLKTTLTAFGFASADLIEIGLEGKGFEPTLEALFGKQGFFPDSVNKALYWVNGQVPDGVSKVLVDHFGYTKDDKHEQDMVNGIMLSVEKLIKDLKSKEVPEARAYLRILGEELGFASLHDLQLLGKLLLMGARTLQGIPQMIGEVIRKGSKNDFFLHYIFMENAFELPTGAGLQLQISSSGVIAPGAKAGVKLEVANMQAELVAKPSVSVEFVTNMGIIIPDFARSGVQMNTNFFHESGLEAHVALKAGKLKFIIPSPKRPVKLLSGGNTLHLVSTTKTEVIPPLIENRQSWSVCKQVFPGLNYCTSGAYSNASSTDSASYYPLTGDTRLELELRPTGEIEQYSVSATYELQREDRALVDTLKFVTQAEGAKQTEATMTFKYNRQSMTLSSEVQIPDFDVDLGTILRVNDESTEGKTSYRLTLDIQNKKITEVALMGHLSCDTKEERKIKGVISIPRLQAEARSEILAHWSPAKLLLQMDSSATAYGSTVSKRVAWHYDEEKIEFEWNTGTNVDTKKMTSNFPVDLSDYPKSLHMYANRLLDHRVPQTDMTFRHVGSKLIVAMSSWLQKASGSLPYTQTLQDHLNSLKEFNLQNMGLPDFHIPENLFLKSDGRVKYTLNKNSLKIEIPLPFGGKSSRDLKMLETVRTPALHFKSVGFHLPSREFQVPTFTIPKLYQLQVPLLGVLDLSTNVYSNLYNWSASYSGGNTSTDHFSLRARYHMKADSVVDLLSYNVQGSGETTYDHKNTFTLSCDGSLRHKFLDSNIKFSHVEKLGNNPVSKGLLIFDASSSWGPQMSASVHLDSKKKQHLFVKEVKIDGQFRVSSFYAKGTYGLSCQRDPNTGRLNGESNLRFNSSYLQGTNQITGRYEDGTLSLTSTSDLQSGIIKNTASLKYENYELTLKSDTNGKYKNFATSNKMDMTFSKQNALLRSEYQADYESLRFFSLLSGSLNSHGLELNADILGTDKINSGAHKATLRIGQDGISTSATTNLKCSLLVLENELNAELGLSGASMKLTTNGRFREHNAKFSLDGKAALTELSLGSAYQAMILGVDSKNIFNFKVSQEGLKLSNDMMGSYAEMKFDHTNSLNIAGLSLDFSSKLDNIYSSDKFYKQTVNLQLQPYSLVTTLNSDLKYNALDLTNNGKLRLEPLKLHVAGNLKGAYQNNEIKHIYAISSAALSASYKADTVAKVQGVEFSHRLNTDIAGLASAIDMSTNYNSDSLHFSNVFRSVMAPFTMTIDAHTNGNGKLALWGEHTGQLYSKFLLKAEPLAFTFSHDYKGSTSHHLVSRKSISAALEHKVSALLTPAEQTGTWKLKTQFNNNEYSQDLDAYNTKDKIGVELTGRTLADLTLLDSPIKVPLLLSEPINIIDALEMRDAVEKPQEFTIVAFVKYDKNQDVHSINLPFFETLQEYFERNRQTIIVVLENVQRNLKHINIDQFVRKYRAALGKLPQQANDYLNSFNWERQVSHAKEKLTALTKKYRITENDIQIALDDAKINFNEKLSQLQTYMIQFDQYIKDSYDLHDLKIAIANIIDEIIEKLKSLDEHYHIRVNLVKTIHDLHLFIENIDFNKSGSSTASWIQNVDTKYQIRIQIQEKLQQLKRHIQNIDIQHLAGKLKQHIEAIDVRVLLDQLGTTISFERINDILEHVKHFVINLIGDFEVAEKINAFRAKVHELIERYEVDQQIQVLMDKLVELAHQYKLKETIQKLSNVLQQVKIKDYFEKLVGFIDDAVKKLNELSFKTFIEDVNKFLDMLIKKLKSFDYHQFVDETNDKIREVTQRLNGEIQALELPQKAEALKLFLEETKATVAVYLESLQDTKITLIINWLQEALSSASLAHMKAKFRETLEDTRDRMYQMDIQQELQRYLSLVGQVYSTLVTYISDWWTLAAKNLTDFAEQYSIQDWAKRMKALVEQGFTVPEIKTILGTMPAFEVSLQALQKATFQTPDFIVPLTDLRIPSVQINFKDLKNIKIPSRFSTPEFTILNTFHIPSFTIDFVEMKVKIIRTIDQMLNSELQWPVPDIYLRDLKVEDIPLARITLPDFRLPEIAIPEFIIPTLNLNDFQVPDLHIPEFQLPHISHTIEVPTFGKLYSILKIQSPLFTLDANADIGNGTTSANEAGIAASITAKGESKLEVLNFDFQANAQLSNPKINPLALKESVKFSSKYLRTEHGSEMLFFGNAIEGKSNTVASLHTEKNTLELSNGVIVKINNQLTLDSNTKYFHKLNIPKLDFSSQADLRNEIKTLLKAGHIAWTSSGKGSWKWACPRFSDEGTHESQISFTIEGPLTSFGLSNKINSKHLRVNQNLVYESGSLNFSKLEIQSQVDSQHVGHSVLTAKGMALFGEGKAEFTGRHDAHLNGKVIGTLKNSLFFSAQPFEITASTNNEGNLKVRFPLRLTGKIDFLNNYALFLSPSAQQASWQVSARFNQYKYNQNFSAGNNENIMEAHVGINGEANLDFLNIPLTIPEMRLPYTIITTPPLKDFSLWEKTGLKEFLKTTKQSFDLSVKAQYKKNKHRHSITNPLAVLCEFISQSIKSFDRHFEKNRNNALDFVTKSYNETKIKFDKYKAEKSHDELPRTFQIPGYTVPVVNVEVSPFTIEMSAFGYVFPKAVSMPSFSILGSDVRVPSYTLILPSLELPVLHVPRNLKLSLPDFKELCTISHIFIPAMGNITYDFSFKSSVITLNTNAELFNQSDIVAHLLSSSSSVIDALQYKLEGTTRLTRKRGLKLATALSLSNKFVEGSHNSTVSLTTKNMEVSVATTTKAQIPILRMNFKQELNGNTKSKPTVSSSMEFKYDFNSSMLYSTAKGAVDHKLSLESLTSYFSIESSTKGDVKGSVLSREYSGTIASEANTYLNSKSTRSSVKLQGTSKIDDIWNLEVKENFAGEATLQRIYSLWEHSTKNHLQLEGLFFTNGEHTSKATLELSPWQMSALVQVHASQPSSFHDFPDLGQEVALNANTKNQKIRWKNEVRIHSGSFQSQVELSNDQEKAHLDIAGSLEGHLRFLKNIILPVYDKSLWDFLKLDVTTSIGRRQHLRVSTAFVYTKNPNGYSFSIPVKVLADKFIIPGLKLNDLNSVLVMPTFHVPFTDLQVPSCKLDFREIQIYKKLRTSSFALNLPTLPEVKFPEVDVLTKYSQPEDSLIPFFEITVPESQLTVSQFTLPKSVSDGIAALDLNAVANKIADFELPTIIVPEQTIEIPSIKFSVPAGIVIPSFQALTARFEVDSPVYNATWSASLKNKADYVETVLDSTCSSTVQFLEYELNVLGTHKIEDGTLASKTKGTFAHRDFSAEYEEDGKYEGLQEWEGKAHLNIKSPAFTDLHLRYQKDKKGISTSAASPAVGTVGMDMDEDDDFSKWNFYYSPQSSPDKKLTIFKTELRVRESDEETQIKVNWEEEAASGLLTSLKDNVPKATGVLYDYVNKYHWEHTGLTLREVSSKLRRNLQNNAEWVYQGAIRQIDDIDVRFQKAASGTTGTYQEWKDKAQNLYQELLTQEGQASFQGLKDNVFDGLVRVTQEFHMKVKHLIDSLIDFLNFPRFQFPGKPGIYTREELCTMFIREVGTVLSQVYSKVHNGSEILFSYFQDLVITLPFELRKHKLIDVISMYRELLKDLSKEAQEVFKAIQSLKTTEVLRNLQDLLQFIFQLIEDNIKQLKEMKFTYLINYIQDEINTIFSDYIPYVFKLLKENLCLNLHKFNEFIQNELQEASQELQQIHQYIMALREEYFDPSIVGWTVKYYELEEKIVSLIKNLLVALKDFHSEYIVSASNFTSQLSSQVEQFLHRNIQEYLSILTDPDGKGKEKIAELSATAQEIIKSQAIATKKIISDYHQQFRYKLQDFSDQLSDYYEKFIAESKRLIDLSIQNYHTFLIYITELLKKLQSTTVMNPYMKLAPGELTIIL

These targets were tested with COc1cc2nc(-c3cc(F)ccc3O)nc(N[C@@H]3CNC[C@H]3C(C)(C)O)c2cc1OC (assay: log2 fold change, soluble protein after heating vs DMSO (PISA); higher = thermal stabilisation; K562 cells, 10 uM, 30 min; active = over 0.2 and 3.5 SD of the protein, either way, in both replicates (recomputed)).
Outline: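 Aliquots of K562 cells (2×10^6 cells/mL) treated with 10 μM compound for 30 min were heated for 3 min over 48°C-58°C. After pooling and extraction in PBS with 0.5% NP-40 at 4°C, soluble protein from a 21,000xg, 90 min spin was quantified by TMTpro 16plex LC-MS/MS with channel sums equalised. Thermal stability is expressed against control samples, from duplicates, as a log2 fold change.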

log2 fold change, inactive:
ANGPTL3 (UniProt Q9Y5C1) -0.011, AP2B1 isoform 2 (UniProt P63010) 0.012, ANKMY2 (UniProt Q8IV38) -0.02, AP2A1 (UniProt O95782) 0.008, ANK1 isoform 14 (UniProt P16157) -0.169, AQR (UniProt O60306) 0.108, ARHGAP1 (UniProt Q07960) 0.152, ANKRD13A (UniProt Q8IZ07) -0.047, ANKRD49 (UniProt Q8WVL7) -0.018, APOOL (UniProt Q6UXV4) -0.006, ARID1A (UniProt O14497) -0.012, ARFGEF2 (UniProt Q9Y6D5) 0.187, ARHGEF12 (UniProt Q9NZN5) 0.075, ARHGEF7 isoform 5 (UniProt Q14155) 0.048, ARAP1 (UniProt Q96P48) -0.016, ANXA3 (UniProt P12429) 0.002, ARFGAP3 (UniProt Q9NP61) 0.079, APOA1 (UniProt P02647) -0.019, APMAP (UniProt Q9HDC9) 0.026, APOBR (UniProt Q0VD83) 0.034, APOBEC3G (UniProt Q9HC16) 0.047, AP1B1 (UniProt Q10567) -0.059, APIP (UniProt Q96GX9) -0.024, APOBEC3D (UniProt Q96AK3) -0.042, AP5M1 (UniProt Q9H0R1) -0.056, ANXA5 (UniProt P08758) 0.009, ARFGAP1 (UniProt Q8N6T3) 0, APOO (UniProt Q9BUR5) -0.111, APLP2 (UniProt Q06481) 0.038, APOM (UniProt O95445) -0.235, AP1G1 isoform 2 (UniProt O43747) -0.011, APOB (UniProt P04114) -0.384, ANAPC5 (UniProt Q9UJX4) 0.015, ARHGAP12 (UniProt Q8IWW6) 0.125
